PubChem BioAssay AID652243, Drosophila RNAi Screening Center – 2013

Screen: 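Fly genes required for human androgen receptor driven transcription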 (primary screen)
Cells: Drosophila S2R+ cells
Knock-down reagent: long dsRNA against Drosophila genes
Duration: 72 h (48 h, then 24 h hormone)
Challenge: synthetic androgen R1881 at 10 nM for 24 h
Measurement: 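Per-well raw luminescence of the androgen-driven firefly reporter and of the Renilla control, two replicates each, without normalisation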
Scale: firefly reporter light: higher = more light from androgen-responsive reporter; Renilla control light: higher = more constitutive control signal (cell number, transfection)
Hit rule: 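Hit when the log firefly-to-Renilla ratio dropped or increased by a fixed fold versus the mean of GFP or LacZ controls across duplicate plates; lowering cut given as 1.5 and as 3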
Calls: active = hit: reporter lowered or raised; inactive = no hit
The screen tested about 24,000 reagents; this is an unselected part of those with a known target gene and a result. In the full data, 246 (1%) were called active. 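Plates not normalised; calls are printed but the firefly/Renilla ratio behind them is not deposited; fold cut for lowering reported inconsistently.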 The raw values are shown without normalisation. A plus sign joins genes that one reagent is predicted to hit. The record does not give: the amount of reagent.

| gene | dsRNA | firefly reporter light, replicate 1 | firefly reporter light, replicate 2 | Renilla control light, replicate 1 | Renilla control light, replicate 2 | outcome |
| --- | --- | --- | --- | --- | --- | --- |
| Klp59C (Kinesin-like protein at 59C) | DRSC04348 | 2.78e5 | 3.58e5 | 2.01e6 | 2.05e6 | inactive |
| Klp59C (Kinesin-like protein at 59C) | DRSC24637 | 3.11e5 | 3.24e5 | 2.88e5 | 3.92e5 | inactive |
| Grip91 (Gamma-tubulin ring protein 91) | DRSC20249 | 43101 | 49573 | 4.07e5 | 4.00e5 | inactive |
| CG2812 | DRSC04319 | 2.25e5 | 2.28e5 | 1.21e6 | 8.76e5 | inactive |
| CG2812 | DRSC28384 | 4.63e5 | 5.08e5 | 1.20e6 | 1.80e6 | inactive |
| CG3347 | DRSC00597 | 95961 | 1.12e5 | 7.82e5 | 8.35e5 | inactive |
| tctn + B9d2 | DRSC03160 | 1.60e5 | 2.02e5 | 2.16e6 | 1.56e6 | inactive |
| Hers (Histone gene-specific Epigenetic Repressor in late S phase) | DRSC19429 | 42680 | 73689 | 6.92e5 | 6.58e5 | inactive |
| Hers (Histone gene-specific Epigenetic Repressor in late S phase) | DRSC19676 | 1.27e5 | 1.21e5 | 9.26e5 | 3.41e5 | inactive |
| Hers (Histone gene-specific Epigenetic Repressor in late S phase) | DRSC24330 | 5.77e5 | 6.98e5 | 5.20e5 | 6.99e5 | inactive |
| CG31388 | DRSC15254 | 34276 | 87889 | 3.71e5 | 4.42e5 | inactive |
| ncm (nucampholin) | DRSC02179 | 9.24e5 | 7.59e5 | 1.34e6 | 1.42e6 | inactive |
| ncm (nucampholin) | DRSC29504 | 2.20e5 | 2.07e5 | 3.56e5 | 3.56e5 | inactive |
| CG17111 | DRSC15174 | 1.76e5 | 1.77e5 | 2.62e6 | 2.40e6 | inactive |
| CG17111 | DRSC26175 | 2.15e5 | 2.60e5 | 4.08e5 | 4.89e5 | inactive |
| CG13231 | DRSC06351 | 4.67e5 | 3.19e5 | 2.77e6 | 2.62e6 | inactive |
| CG13231 | DRSC26554 | 6.53e5 | 7.25e5 | 7.10e5 | 8.99e5 | inactive |
| Rrp47 (Ribosomal RNA processing 47) | DRSC20124 | 6.28e5 | 5.18e5 | 3.62e6 | 2.93e6 | inactive |
| Rrp47 (Ribosomal RNA processing 47) | DRSC25568 | 7.26e5 | 5.48e5 | 1.17e6 | 1.25e6 | inactive |
| CG30356 | DRSC05119 | 1.04e5 | 1.65e5 | 2.02e5 | 3.29e5 | inactive |
| CG17233 | DRSC23352 | 7.63e5 | 8.74e5 | 9.54e5 | 9.70e5 | inactive |
| GstD4 (Glutathione S transferase D4) | DRSC16685 | 1.79e5 | 1.91e5 | 1.70e6 | 1.73e6 | inactive |
| GstD4 (Glutathione S transferase D4) | DRSC27765 | 2.11e5 | 1.37e5 | 4.19e5 | 6.86e5 | inactive |
| GstD4 (Glutathione S transferase D4) | DRSC38958 | 7.12e5 | 6.47e5 | 8.42e5 | 9.94e5 | inactive |
| CG7512 | DRSC10863 | 1.18e5 | 1.33e5 | 1.30e6 | 1.32e6 | inactive |
| CG6927 | DRSC18407 | 93138 | 73635 | 5.79e5 | 5.81e5 | inactive |
| dnd (dead end) | DRSC16064 | 2.92e5 | 2.45e5 | 3.07e6 | 3.00e6 | inactive |
| CG1503 | DRSC20512 | 1.44e5 | 71577 | 4.29e5 | 4.09e5 | inactive |
| CG31313 | DRSC13044 | 1.39e5 | 1.06e5 | 86752 | 90897 | inactive |
| MAN1 | DRSC04342 | 7.89e5 | 2.12e5 | 1.71e6 | 5.53e5 | inactive |
| CG3224 | DRSC18295 | 2.26e5 | 2.99e5 | 2.57e6 | 2.67e6 | inactive |
| CG15635 | DRSC00470 | 3.51e5 | 3.20e5 | 2.02e6 | 2.40e6 | inactive |
| CG15635 | DRSC22873 | 1.88e5 | 2.13e5 | 7.18e5 | 1.12e6 | inactive |
| Mesh1 (Metazoan SpoT homolog-1) | DRSC14433 | 1.13e5 | 1.14e5 | 1.35e6 | 2.34e6 | inactive |
| Obp83g (Odorant-binding protein 83g) | DRSC12269 | 52487 | 70810 | 1.31e6 | 1.21e6 | inactive |
| Obp83g (Odorant-binding protein 83g) | DRSC28322 | 3.04e5 | 6.12e5 | 6.74e5 | 1.84e6 | inactive |
| CG42329 | DRSC00373 | 1.24e5 | 1.23e5 | 8.10e5 | 9.68e5 | inactive |
| CG42329 | DRSC00682 | 1.29e5 | 70138 | 7.43e5 | 7.90e5 | inactive |
| Pits (Protein interacting with Ttk69 and Sin3A) | DRSC19385 | 6.28e5 | 5.06e5 | 4.33e6 | 3.94e6 | inactive |
| Pits (Protein interacting with Ttk69 and Sin3A) | DRSC25013 | 8.82e5 | 8.41e5 | 8.70e5 | 8.28e5 | inactive |
| Irk2 (Inwardly rectifying potassium channel 2) | DRSC15569 | 73917 | 1.14e5 | 7.42e5 | 6.83e5 | inactive |
| CG31988 | DRSC22491 | 4.63e5 | 7.68e5 | 6.62e5 | 1.07e6 | inactive |
| CG11475 | DRSC04113 | 1.32e6 | 3.22e5 | 2.26e6 | 6.73e5 | inactive |
| CG11475 | DRSC24420 | 6.34e5 | 7.63e5 | 9.43e5 | 9.05e5 | inactive |
| CG13442 | DRSC06402 | 1.03e5 | 1.69e5 | 1.39e6 | 1.88e6 | inactive |
| CG13442 | DRSC25909 | 4.32e5 | 4.04e5 | 9.82e5 | 8.75e5 | inactive |
| CG14050 | DRSC18594 | 1.92e5 | 2.57e5 | 2.74e6 | 2.97e6 | inactive |
| CG1909 | DRSC17150 | 69856 | 65122 | 4.39e5 | 3.75e5 | inactive |
| Culd (CUB and LDLa domain) | DRSC10262 | 7.46e5 | 1.29e6 | 1.10e6 | 2.17e6 | inactive |
| CG7857 | DRSC10925 | 4.00e5 | 1.65e5 | 2.30e6 | 1.89e6 | inactive |
| CG7857 | DRSC29862 | 9.79e5 | 9.78e5 | 1.08e6 | 1.55e6 | inactive |
| msn (misshapen) | DRSC07990 | 1.63e5 | 1.21e5 | 4.05e5 | 4.06e5 | inactive |
| msn (misshapen) | DRSC08498 | 38856 | 70910 | 9.77e5 | 1.04e6 | inactive |
| msn (misshapen) | DRSC25188 | 4.97e5 | 4.00e5 | 5.36e5 | 4.81e5 | inactive |
| msn (misshapen) | DRSC36671 | – | – | – | – | inactive |
| msn (misshapen) | DRSC36672 | – | – | – | – | inactive |
| Sik3 (Salt-inducible kinase 3) | DRSC06505 | 1.48e5 | 1.35e5 | 2.54e6 | 2.31e6 | inactive |
| Sik3 (Salt-inducible kinase 3) | DRSC06771 | 3.71e5 | 3.24e5 | 4.01e5 | 3.30e5 | inactive |
| Sik3 (Salt-inducible kinase 3) | DRSC29149 | 5.55e5 | 4.94e5 | 1.13e6 | 1.10e6 | inactive |
| Sik3 (Salt-inducible kinase 3) | DRSC29722 | 4.33e5 | 3.76e5 | 1.61e6 | 1.46e6 | inactive |
| Sik3 (Salt-inducible kinase 3) | DRSC37060 | – | – | – | – | inactive |
| Sik3 (Salt-inducible kinase 3) | DRSC39289 | – | – | – | – | inactive |
| CG17196 | DRSC15189 | 2.28e5 | 2.12e5 | 2.70e6 | 2.45e6 | inactive |
| elfless | DRSC02451 | 2.06e5 | 2.23e5 | 1.75e6 | 2.21e6 | inactive |
| CG17717 | DRSC18130 | 2.40e5 | 3.11e5 | 2.81e6 | 3.45e6 | inactive |
| Atg4b (Autophagy-related 4b) | DRSC15988 | 63353 | 76781 | 4.19e5 | 3.78e5 | inactive |
| Atg4b (Autophagy-related 4b) | DRSC25480 | 7.92e5 | 6.23e5 | 7.84e5 | 9.84e5 | inactive |
| Alg11 (ALG11, alpha-1,2-mannosyltransferase) | DRSC11647 | 57724 | 79130 | 4.34e5 | 7.60e5 | inactive |
| CG42594 | DRSC18408 | 2.13e5 | 4.10e5 | 2.59e6 | 3.38e6 | inactive |
| CG42594 | DRSC22978 | 7.68e5 | 9.48e5 | 1.38e6 | 1.45e6 | inactive |
| CG42594 | DRSC25767 | 3.91e5 | 4.38e5 | 8.55e5 | 5.94e5 | inactive |
| CG42594 | DRSC26285 | 3.16e5 | 3.58e5 | 8.05e5 | 7.94e5 | inactive |
| CG42594 | DRSC28979 | 7.35e5 | 7.59e5 | 1.67e6 | 1.61e6 | inactive |
| Jhbp12 (Juvenile hormone binding protein 12) | DRSC14621 | 1.47e5 | 1.84e5 | 2.57e6 | 2.71e6 | inactive |

Only “Renilla control light, replicate 2” (3 entries from above):
elfless [DRSC02451] = 2.21e6
CG17717 [DRSC18130] = 3.45e6
Atg4b (Autophagy-related 4b) [DRSC15988] = 3.78e5
